Consider 25 sequences from the supplement of paper PMC9233669.

Variants at the background level are over-represented here.

One series relates to biotinyl-Leu-oxazolone. Nature of the series: self-aminoacylation, catalytic enhancement (BLO) (fold over background); higher = more active; k-Seq, kA / k0A0; sequences stand for … in GGGAAUGGAUCCACAUCUACGAAUUC…UUCACUGCAGACUUGACGAAGCUG
A digest of the protocol: (§1)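 Mutagenized RNA pools (0.43 μM; 21-nt variable region) were treated with 2–1250 μM of each biotinyl-aminoacyl-oxazolone. Conditions were 50 μL HEPES/NaCl/KCl/MgCl2/CaCl2 buffer, 5% acetonitrile, pH 6.9–7.0, room temperature, 90 minutes. Catalytic enhancement, the median kA relative to the uncatalyzed rate, was derived from streptavidin capture, qPCR and Illumina sequencing.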

A further series relates to biotinyl-Met-oxazolone. Nature of the series: self-aminoacylation, catalytic enhancement (BMO) (fold over background); higher = more active; k-Seq, kA / k0A0; sequences stand for … in GGGAAUGGAUCCACAUCUACGAAUUC…UUCACUGCAGACUUGACGAAGCUG
A digest of the protocol: as §1

In a further series the test system is biotinyl-Trp-oxazolone. Nature of the series: self-aminoacylation, catalytic enhancement (BWO) (fold over background); higher = more active; k-Seq, kA / k0A0; sequences stand for … in GGGAAUGGAUCCACAUCUACGAAUUC…UUCACUGCAGACUUGACGAAGCUG
A digest of the protocol: as §1

For the next series, the system named is biotinyl-Ile-oxazolone. As to the kind of experiment: self-aminoacylation, catalytic enhancement (BIO) (fold over background); higher = more active; k-Seq, kA / k0A0; sequences stand for … in GGGAAUGGAUCCACAUCUACGAAUUC…UUCACUGCAGACUUGACGAAGCUG
A digest of the protocol: as §1

The next series deals with biotinyl-Phe-oxazolone. Nature of the series: self-aminoacylation, catalytic enhancement (BFO) (fold over background); higher = more active; k-Seq, kA / k0A0; sequences stand for … in GGGAAUGGAUCCACAUCUACGAAUUC…UUCACUGCAGACUUGACGAAGCUG
A digest of the protocol:
as §1

A further series has as its system biotinyl-Val-oxazolone. Nature of the series: self-aminoacylation, catalytic enhancement (BVO) (fold over background); higher = more active; k-Seq, kA / k0A0; sequences stand for … in GGGAAUGGAUCCACAUCUACGAAUUC…UUCACUGCAGACUUGACGAAGCUG
A digest of the protocol:
as §1

On to “AUUACCCUGGUCCUCGAAUGA [Fam2.1 aminoacylation ribozyme variant]”, for which the self-aminoacylation was 1.1 with biotinyl-Leu-oxazolone; 1.17 in the series on biotinyl-Met-oxazolone; 1.04 in the series on biotinyl-Trp-oxazolone; 1.07 in the series on biotinyl-Ile-oxazolone; 0.3 in the series with biotinyl-Phe-oxazolone; 1.01 with biotinyl-Val-oxazolone.

As to “UUACUUCAAACACUCGGUCUG [Fam1A.1 aminoacylation ribozyme variant]”, the self-aminoacylation with biotinyl-Leu-oxazolone amounted to 1.15; in the series on biotinyl-Met-oxazolone, 1.19; in the series with biotinyl-Trp-oxazolone, 1.24; in the series on biotinyl-Ile-oxazolone, 1.24; in the series with biotinyl-Phe-oxazolone, 1.11; in the series with biotinyl-Val-oxazolone, 1.08.

For “GACUUUGCUAAUAGUCGCAAG [Fam3.1 aminoacylation ribozyme variant]”, the self-aminoacylation with biotinyl-Leu-oxazolone came to 1.85; with biotinyl-Met-oxazolone it was 2.11; in the series with biotinyl-Trp-oxazolone, 1.97; in the series with biotinyl-Ile-oxazolone, 1.74; in the series with biotinyl-Phe-oxazolone, 2.88; in the series on biotinyl-Val-oxazolone, 1.72.

Turning to “AUUACCCUAGUCAUCGAGUGG [Fam2.1 aminoacylation ribozyme variant]”, the self-aminoacylation in the series on biotinyl-Leu-oxazolone stood at 1.76; in the series with biotinyl-Met-oxazolone, 1.83; with biotinyl-Trp-oxazolone it was 1.07; in the series on biotinyl-Ile-oxazolone it was 1.29; in the series with biotinyl-Phe-oxazolone it was 1.44; in the series on biotinyl-Val-oxazolone it was 1.41.

On to “CCACACAUCAAGCAAACGGUC [Fam1B.1 aminoacylation ribozyme variant]”, for which the self-aminoacylation in the series on biotinyl-Leu-oxazolone was 0.427; in the series on biotinyl-Met-oxazolone, 0.668; in the series with biotinyl-Trp-oxazolone it was 0.57; in the series on biotinyl-Ile-oxazolone, 0.627; in the series with biotinyl-Phe-oxazolone, 0.769; in the series with biotinyl-Val-oxazolone, 0.752.

As to “CAACUUCAAACACUCGGUCUG [Fam1A.1 aminoacylation ribozyme variant]”, the self-aminoacylation with biotinyl-Leu-oxazolone is 0.975; in the series on biotinyl-Met-oxazolone it was 1.21; with biotinyl-Trp-oxazolone, 1.23; in the series on biotinyl-Ile-oxazolone, 1.58; in the series on biotinyl-Phe-oxazolone, 1.83; with biotinyl-Val-oxazolone, 1.57.

As for “AAGUUUGCUAAUAGUAGUAAG [Fam3.1 aminoacylation ribozyme variant]”, the self-aminoacylation in the series on biotinyl-Leu-oxazolone came to 1.08; in the series on biotinyl-Met-oxazolone, 1.3; in the series with biotinyl-Trp-oxazolone it was 1.28; with biotinyl-Ile-oxazolone it was 1.13; in the series with biotinyl-Phe-oxazolone it was 1.45; with biotinyl-Val-oxazolone, 0.886.

“CUACGUCAAACAUUCGGUCUG [Fam1A.1 aminoacylation ribozyme variant]”: the self-aminoacylation was determined as 2.5 in the series on biotinyl-Leu-oxazolone; 2.93 with biotinyl-Met-oxazolone; 3.07 in the series with biotinyl-Trp-oxazolone; 2.87 with biotinyl-Ile-oxazolone; 12.8 in the series on biotinyl-Phe-oxazolone; 3.79 in the series on biotinyl-Val-oxazolone.

Take “CCACACUUGAAGAAAUCGGUC [Fam1B.1 aminoacylation ribozyme variant]”: the self-aminoacylation in the series on biotinyl-Leu-oxazolone was 1.24; in the series on biotinyl-Met-oxazolone, 1.17; in the series on biotinyl-Trp-oxazolone, 1.7; with biotinyl-Ile-oxazolone, 1.03; in the series with biotinyl-Phe-oxazolone, 0.61; with biotinyl-Val-oxazolone, 1.24.

For the sequence “AAGUUUGCUAAUAGUCGCACG [Fam3.1 aminoacylation ribozyme variant]”, the self-aminoacylation in the series on biotinyl-Leu-oxazolone amounted to 0.847; in the series with biotinyl-Met-oxazolone it was 0.89; in the series on biotinyl-Trp-oxazolone, 0.908; in the series with biotinyl-Ile-oxazolone, 0.887; in the series on biotinyl-Phe-oxazolone it was 1.19; with biotinyl-Val-oxazolone it was 0.825.

Turning to “AUUCACCAAGGUCAGCGGGUG [Fam2.2 aminoacylation ribozyme variant]”, the self-aminoacylation is 5.4 with biotinyl-Leu-oxazolone; 4.83 with biotinyl-Met-oxazolone; 4.65 in the series on biotinyl-Trp-oxazolone; 4.01 with biotinyl-Ile-oxazolone; 29.3 with biotinyl-Phe-oxazolone; 3.95 with biotinyl-Val-oxazolone.

On to “CCACAAUUCAAGCAAUCGGUC [Fam1B.1 aminoacylation ribozyme variant]”, for which the self-aminoacylation was 0.973 with biotinyl-Leu-oxazolone; 0.936 in the series on biotinyl-Met-oxazolone; 1.69 in the series on biotinyl-Trp-oxazolone; 1.17 with biotinyl-Ile-oxazolone; 2.8 in the series with biotinyl-Phe-oxazolone; 1.16 with biotinyl-Val-oxazolone.

On to “CCACAAUUCAAGCAAUUGGUC [Fam1B.1 aminoacylation ribozyme variant]”, for which the self-aminoacylation in the series on biotinyl-Leu-oxazolone was determined as 0.731; in the series on biotinyl-Met-oxazolone, 0.652; in the series on biotinyl-Trp-oxazolone it was 0.644; in the series with biotinyl-Ile-oxazolone, 0.871; with biotinyl-Phe-oxazolone, 0.928; with biotinyl-Val-oxazolone, 0.828.

As to “AAUACCCUGGUCAUCGAGCGA [Fam2.1 aminoacylation ribozyme variant]”, the self-aminoacylation with biotinyl-Leu-oxazolone was 1.55; in the series with biotinyl-Met-oxazolone, 2.03; in the series with biotinyl-Trp-oxazolone, 2.75; with biotinyl-Ile-oxazolone, 1.65; in the series with biotinyl-Phe-oxazolone, 1.56; in the series on biotinyl-Val-oxazolone, 1.66.

In the case of “CUACUACAAACAAUCGGUGUG [Fam1A.1 aminoacylation ribozyme variant]”, the self-aminoacylation in the series with biotinyl-Leu-oxazolone is 0.659; with biotinyl-Met-oxazolone, 0.81; in the series with biotinyl-Trp-oxazolone it was 0.572; in the series with biotinyl-Ile-oxazolone it was 0.698; with biotinyl-Phe-oxazolone it was 0.884; in the series on biotinyl-Val-oxazolone, 0.715.

“AAGUUUGCUACAAGUCGCAAG [Fam3.1 aminoacylation ribozyme variant]”: the self-aminoacylation in the series with biotinyl-Leu-oxazolone is 1.01; with biotinyl-Met-oxazolone it was 1.71; in the series with biotinyl-Trp-oxazolone it was 0.99; with biotinyl-Ile-oxazolone, 1.24; with biotinyl-Phe-oxazolone it was 1.66; with biotinyl-Val-oxazolone, 1.06.

For the sequence “AAGUCUGCUAAUAGUUGCAAG [Fam3.1 aminoacylation ribozyme variant]”, the self-aminoacylation turned out to be 1.22 with biotinyl-Leu-oxazolone; 1.4 with biotinyl-Met-oxazolone; 1.27 in the series on biotinyl-Trp-oxazolone; 0.878 in the series with biotinyl-Ile-oxazolone; 1.19 in the series with biotinyl-Phe-oxazolone; 0.748 with biotinyl-Val-oxazolone.

As to “CCAAACUUCAAGAAAUCGGUC [Fam1B.1 aminoacylation ribozyme variant]”, the self-aminoacylation in the series on biotinyl-Leu-oxazolone was determined as 0.986; in the series with biotinyl-Met-oxazolone it was 0.927; in the series with biotinyl-Trp-oxazolone it was 5.02; in the series on biotinyl-Ile-oxazolone, 0.936; with biotinyl-Phe-oxazolone it was 6.01; with biotinyl-Val-oxazolone, 0.84.

As for “AUUACCCUGAUCAUCGAGUGC [Fam2.1 aminoacylation ribozyme variant]”, the self-aminoacylation was 0.904 with biotinyl-Leu-oxazolone; 0.864 in the series with biotinyl-Met-oxazolone; 0.799 with biotinyl-Trp-oxazolone; 0.731 in the series with biotinyl-Ile-oxazolone; 0.751 in the series with biotinyl-Phe-oxazolone; 0.837 with biotinyl-Val-oxazolone.

Consider “AAGUUUGCUAAUCGUCGCAUG [Fam3.1 aminoacylation ribozyme variant]”, for which the self-aminoacylation in the series on biotinyl-Leu-oxazolone came out at 0.957; in the series on biotinyl-Met-oxazolone, 0.922; in the series with biotinyl-Trp-oxazolone, 0.804; in the series on biotinyl-Ile-oxazolone it was 1.03; with biotinyl-Phe-oxazolone it was 0.667; in the series on biotinyl-Val-oxazolone, 0.923.

As for “CUACUUCGAACAAUCGGUCAG [Fam1A.1 aminoacylation ribozyme variant]”, the self-aminoacylation in the series with biotinyl-Leu-oxazolone is 0.713; in the series on biotinyl-Met-oxazolone it was 0.588; in the series with biotinyl-Trp-oxazolone, 0.415; in the series on biotinyl-Ile-oxazolone, 0.827; in the series with biotinyl-Phe-oxazolone, 0.751; in the series with biotinyl-Val-oxazolone it was 0.825.

On to “CUACUUGAAACAAUCGGUGUG [Fam1A.1 aminoacylation ribozyme variant]”, for which the self-aminoacylation worked out at 1.3 in the series on biotinyl-Leu-oxazolone; 1.22 in the series on biotinyl-Met-oxazolone; 1.68 in the series on biotinyl-Trp-oxazolone; 0.961 in the series on biotinyl-Ile-oxazolone; 0.706 in the series with biotinyl-Phe-oxazolone; 1.07 in the series with biotinyl-Val-oxazolone.

With “CCACACUUCACGCAAUCCGUC [Fam1B.1 aminoacylation ribozyme variant]”, the self-aminoacylation was 0.948 with biotinyl-Leu-oxazolone; 1.1 with biotinyl-Met-oxazolone; 1.44 in the series with biotinyl-Trp-oxazolone; 1.19 in the series with biotinyl-Ile-oxazolone; 0.586 in the series on biotinyl-Phe-oxazolone; 1.33 in the series with biotinyl-Val-oxazolone.

Consider “CUACUUCAAAUAAUCGUUCUG [Fam1A.1 aminoacylation ribozyme variant]”, for which the self-aminoacylation was 0.62 with biotinyl-Leu-oxazolone; 0.688 in the series on biotinyl-Met-oxazolone; 0.97 in the series on biotinyl-Trp-oxazolone; 0.686 with biotinyl-Ile-oxazolone; 1.71 with biotinyl-Phe-oxazolone; 0.694 in the series on biotinyl-Val-oxazolone.

In the case of “AUUCAUCUAGGUCAGCGGGUG [Fam2.2 aminoacylation ribozyme variant]”, the self-aminoacylation in the series with biotinyl-Leu-oxazolone was 5.56; in the series on biotinyl-Met-oxazolone it was 4.17; in the series with biotinyl-Trp-oxazolone, 4.36; in the series with biotinyl-Ile-oxazolone it was 3.25; with biotinyl-Phe-oxazolone, 25.3; with biotinyl-Val-oxazolone, 3.23.
